# PubChem BioAssay AID1159579, Peter MacCallum Cancer Centre, 2015
# Screen: 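Find genes whose silencing alters migration of lymphatic endothelial cells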 (follow-up of hits)
# Cells: human dermal lymphatic endothelial cells
# Reagent: single siRNA against human genes, 25 nM
# Detection: 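Scratch wound imaging measuring area filled by moving cells plus nuclei number, averaged over two wells and scaled to mock-transfected controls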
# Reading the numbers: migration relative to mock: higher = more migration into the scratch; mean nuclei count: higher = more cells remaining
# Call rule: 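Called active when the migration ratio is 0.6 or lower (impaired) or 1.3 or higher (accelerated), but inactive whenever the mean nuclei count falls under 3300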
# Calls: active = migration changed (impaired or accelerated); inactive = no migration change, or too few cells
# This is a random part of about 2,000 reagents tested. Of all reagents, 549 (27%) are marked active. 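Some migration ratios are negative; siRNAs with too few cells are inactive whatever their migration ratio.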 A number with no mark means an inactive call. The numbers tell different reagents against one gene apart. No sequences are given here. Not stated in the record: the time to read-out.
Gene,siRNA no.,migration relative to mock,migration and cell number class,mean nuclei count
ZNF654,1,0.92,no change in migration or cell number,5212
ZNF654,2,0.89,no change in migration or cell number,3784
ZNF654,3,1.1,no change in migration or cell number,5704
ZNF654,4,0.9,no change in migration or cell number,4521
CRTC3,1,0.66,no change in migration or cell number,5356
CRTC3,2,-0.16 (active),migration reduced,3477
CRTC3,3,0.81,no change in migration or cell number,4805
CRTC3,4,0.99,no change in migration or cell number,5274
CCS,1,1.15,no change in migration or cell number,5746
CCS,2,-1.16,too few cells; migration not scored,2882
CCS,3,0.14 (active),migration reduced,5616
CCS,4,0.48 (active),migration reduced,4980
FGF4,1,1.54 (active),migration increased,5156
FGF4,2,0.78,no change in migration or cell number,4668
FGF4,3,0.79,no change in migration or cell number,4962
FGF4,4,1.04,no change in migration or cell number,5242
CADM1,1,0.65,no change in migration or cell number,4644
CADM1,2,0.89,no change in migration or cell number,5160
CADM1,3,0.92,no change in migration or cell number,5740
CADM1,4,0.55 (active),migration reduced,4541
GPR152,1,0.4 (active),migration reduced,4998
GPR152,2,0.8,no change in migration or cell number,5540
GPR152,3,0.53 (active),migration reduced,4162
GPR152,4,0.03 (active),migration reduced,3434
KCNQ2,1,0.74,no change in migration or cell number,5040
KCNQ2,2,0.22 (active),migration reduced,4300
KCNQ2,3,0.5 (active),migration reduced,5759
KCNQ2,4,0.79,no change in migration or cell number,6896
TMIGD2,1,0.27 (active),migration reduced,5171
TMIGD2,2,-0.32 (active),migration reduced,3348
TMIGD2,3,0.89,no change in migration or cell number,5837
TMIGD2,4,0.84,no change in migration or cell number,6205
TMC1,1,0.82,no change in migration or cell number,6558
TMC1,2,0.86,no change in migration or cell number,5943
TMC1,3,0.56 (active),migration reduced,4238
TMC1,4,0.94,no change in migration or cell number,5680
RANBP3L,1,0.43 (active),migration reduced,5538
RANBP3L,2,0.82,no change in migration or cell number,6360
RANBP3L,3,0.08 (active),migration reduced,4798
RANBP3L,4,0.99,no change in migration or cell number,5173
SACK1A,1,0.76,no change in migration or cell number,4151
SACK1A,2,-0.2,too few cells; migration not scored,2266
SACK1A,3,0.81,no change in migration or cell number,4907
SACK1A,4,0.87,no change in migration or cell number,4815
BORCS6,1,0.86,no change in migration or cell number,6360
BORCS6,2,0.5 (active),migration reduced,4472
BORCS6,3,0.4 (active),migration reduced,3330
BORCS6,4,0.37 (active),migration reduced,4035
